Results published in the supplement of paper PMC7661543.
Differences between knockout arms are mostly noise. Where a SMILES comes first, the peptide text is derived from it. The star is where a group is joined. Cbz = O=C(OCc1ccccc1)*

Tested on: SKBR3
Assay: relative cell number vs DMSO control (72 h) (% of DMSO); higher = less growth inhibition (more cells)
Experimental: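 QMAP-Seq: a pool of 5 breast cancer cell lines (ZR-75-1, SKBR3, HCC-38, MDA-MB-231, BT-20), each carrying 12 doxycycline-inducible Cas9 sgRNA perturbations (11 knockouts plus non-targeting sgNT), was treated with compounds for 72 h at four 10-fold doses (10 nM-10 uM or 1 nM-1 uM range). Barcodes were amplified and sequenced, and cell number was interpolated from 293T spike-in standard curves. The result is expressed as % of the median of DMSO wells. Two biological replicates.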

Nc1nc(OCc2cc(Br)cs2)c2[nH]cnc2n1 [Lomeguatrib]
Details | relative cell number
sgRNA knockout: sgATF3, 10 nM | 108
sgRNA knockout: sgATF3, 100 nM | 105
sgRNA knockout: sgATF3, 1000 nM | 71.4
sgRNA knockout: sgATF3, 10000 nM | 96.9
sgRNA knockout: sgATF4, 10 nM | 90.3
sgRNA knockout: sgATF4, 100 nM | 90.4
sgRNA knockout: sgATF4, 1000 nM | 99.9
sgRNA knockout: sgATF4, 10000 nM | 92.6
sgRNA knockout: sgATF6, 10 nM | 95.3
sgRNA knockout: sgATF6, 100 nM | 91
sgRNA knockout: sgATF6, 1000 nM | 114
sgRNA knockout: sgATF6, 10000 nM | 78.4
sgRNA knockout: sgATG7, 10 nM | 99.3
sgRNA knockout: sgATG7, 100 nM | 87.4
sgRNA knockout: sgATG7, 1000 nM | 98.5
sgRNA knockout: sgATG7, 10000 nM | 101
sgRNA knockout: sgERN1, 10 nM | 96.3
sgRNA knockout: sgERN1, 100 nM | 95.9
sgRNA knockout: sgERN1, 1000 nM | 100
sgRNA knockout: sgERN1, 10000 nM | 81.6
sgRNA knockout: sgHSF1, 10 nM | 91.5
sgRNA knockout: sgHSF1, 100 nM | 83.8
sgRNA knockout: sgHSF1, 1000 nM | 102
sgRNA knockout: sgHSF1, 10000 nM | 63.5
sgRNA knockout: sgHSF2, 10 nM | 96.8
sgRNA knockout: sgHSF2, 100 nM | 88.9
sgRNA knockout: sgHSF2, 1000 nM | 95.4
sgRNA knockout: sgHSF2, 10000 nM | 74
sgRNA knockout: sgKEAP1, 10 nM | 93.8
sgRNA knockout: sgKEAP1, 100 nM | 94.9
sgRNA knockout: sgKEAP1, 1000 nM | 90.6
sgRNA knockout: sgKEAP1, 10000 nM | 90.9
sgRNA knockout: sgNFE2L2, 10 nM | 84.9
sgRNA knockout: sgNFE2L2, 100 nM | 114
sgRNA knockout: sgNFE2L2, 1000 nM | 86.4
sgRNA knockout: sgNFE2L2, 10000 nM | 81.4
sgRNA knockout: sgSLC35F2, 10 nM | 109.2
sgRNA knockout: sgSLC35F2, 100 nM | 98.1
sgRNA knockout: sgSLC35F2, 1000 nM | 96.8
sgRNA knockout: sgSLC35F2, 10000 nM | 85.7
sgRNA knockout: sgXBP1, 10 nM | 99.1
sgRNA knockout: sgXBP1, 100 nM | 88.5
sgRNA knockout: sgXBP1, 1000 nM | 70
sgRNA knockout: sgXBP1, 10000 nM | 87.3

CC[C@H](C)C(=O)O[C@H]1C[C@@H](C)C=C2C=C[C@H](C)[C@H](CC[C@@H]3C[C@@H](O)CC(=O)O3)[C@H]21 [Lovastatin]
Details | relative cell number
sgRNA knockout: sgATF3, 10 nM | 108
sgRNA knockout: sgATF3, 100 nM | 91.7
sgRNA knockout: sgATF3, 1000 nM | 103.75
sgRNA knockout: sgATF3, 10000 nM | 82.9
sgRNA knockout: sgATF4, 10 nM | 108
sgRNA knockout: sgATF4, 100 nM | 75.9
sgRNA knockout: sgATF4, 1000 nM | 90
sgRNA knockout: sgATF4, 10000 nM | 84.7
sgRNA knockout: sgATF6, 10 nM | 87.2
sgRNA knockout: sgATF6, 100 nM | 71.2
sgRNA knockout: sgATF6, 1000 nM | 88.6
sgRNA knockout: sgATF6, 10000 nM | 85.2
sgRNA knockout: sgATG7, 10 nM | 95.9
sgRNA knockout: sgATG7, 100 nM | 82.69
sgRNA knockout: sgATG7, 1000 nM | 108
sgRNA knockout: sgATG7, 10000 nM | 80.6
sgRNA knockout: sgERN1, 10 nM | 107
sgRNA knockout: sgERN1, 100 nM | 93.2
sgRNA knockout: sgERN1, 1000 nM | 103
sgRNA knockout: sgERN1, 10000 nM | 89.3
sgRNA knockout: sgHSF1, 10 nM | 103
sgRNA knockout: sgHSF1, 100 nM | 76.4
sgRNA knockout: sgHSF1, 1000 nM | 86
sgRNA knockout: sgHSF1, 10000 nM | 84.1
sgRNA knockout: sgHSF2, 10 nM | 99
sgRNA knockout: sgHSF2, 100 nM | 69.1
sgRNA knockout: sgHSF2, 1000 nM | 85.1
sgRNA knockout: sgHSF2, 10000 nM | 74.9
sgRNA knockout: sgKEAP1, 10 nM | 98.1
sgRNA knockout: sgKEAP1, 100 nM | 78
sgRNA knockout: sgKEAP1, 1000 nM | 93
sgRNA knockout: sgKEAP1, 10000 nM | 71.2
sgRNA knockout: sgNFE2L2, 10 nM | 84.3
sgRNA knockout: sgNFE2L2, 100 nM | 83.2
sgRNA knockout: sgNFE2L2, 1000 nM | 94.9
sgRNA knockout: sgNFE2L2, 10000 nM | 86.6
sgRNA knockout: sgSLC35F2, 10 nM | 93.4
sgRNA knockout: sgSLC35F2, 100 nM | 85
sgRNA knockout: sgSLC35F2, 1000 nM | 109
sgRNA knockout: sgSLC35F2, 10000 nM | 77.9
sgRNA knockout: sgXBP1, 10 nM | 110.8
sgRNA knockout: sgXBP1, 100 nM | 83.3
sgRNA knockout: sgXBP1, 1000 nM | 114
sgRNA knockout: sgXBP1, 10000 nM | 98.2

CC(C)C[C@@H](C=O)NC(=O)[C@H](CC(C)C)NC(=O)[C@H](CC(C)C)NC(=O)OCc1ccccc1 [MG132] (Cbz-Leu-Leu-Leu-aldehyde)
Details | relative cell number
sgRNA knockout: sgATF3, 10 nM | 107
sgRNA knockout: sgATF3, 100 nM | 89.8
sgRNA knockout: sgATF3, 1000 nM | 13.8
sgRNA knockout: sgATF3, 10000 nM | 9.7
sgRNA knockout: sgATF4, 10 nM | 101
sgRNA knockout: sgATF4, 100 nM | 104
sgRNA knockout: sgATF4, 1000 nM | 12.8
sgRNA knockout: sgATF4, 10000 nM | 9.94
sgRNA knockout: sgATF6, 10 nM | 99.1
sgRNA knockout: sgATF6, 100 nM | 86.5
sgRNA knockout: sgATF6, 1000 nM | 11
sgRNA knockout: sgATF6, 10000 nM | 6.68
sgRNA knockout: sgATG7, 10 nM | 81.2
sgRNA knockout: sgATG7, 100 nM | 107
sgRNA knockout: sgATG7, 1000 nM | 15.6
sgRNA knockout: sgATG7, 10000 nM | 10.9
sgRNA knockout: sgERN1, 10 nM | 99.9
sgRNA knockout: sgERN1, 100 nM | 106
sgRNA knockout: sgERN1, 1000 nM | 14.8
sgRNA knockout: sgERN1, 10000 nM | 8.35
sgRNA knockout: sgHSF1, 10 nM | 98.648
sgRNA knockout: sgHSF1, 100 nM | 90.1
sgRNA knockout: sgHSF1, 1000 nM | 12.1
sgRNA knockout: sgHSF1, 10000 nM | 8.94
sgRNA knockout: sgHSF2, 10 nM | 89.8
sgRNA knockout: sgHSF2, 100 nM | 83.2
sgRNA knockout: sgHSF2, 1000 nM | 11.5
sgRNA knockout: sgHSF2, 10000 nM | 11.6
sgRNA knockout: sgKEAP1, 10 nM | 88.32
sgRNA knockout: sgKEAP1, 100 nM | 88.9
sgRNA knockout: sgKEAP1, 1000 nM | 11.6
sgRNA knockout: sgKEAP1, 10000 nM | 8.84
sgRNA knockout: sgNFE2L2, 10 nM | 92.6
sgRNA knockout: sgNFE2L2, 100 nM | 87.4
sgRNA knockout: sgNFE2L2, 1000 nM | 14.7
sgRNA knockout: sgNFE2L2, 10000 nM | 7.913
sgRNA knockout: sgSLC35F2, 10 nM | 92.2
sgRNA knockout: sgSLC35F2, 100 nM | 93.3
sgRNA knockout: sgSLC35F2, 1000 nM | 12.4
sgRNA knockout: sgSLC35F2, 10000 nM | 6.88
sgRNA knockout: sgXBP1, 10 nM | 108
sgRNA knockout: sgXBP1, 100 nM | 81.3
sgRNA knockout: sgXBP1, 1000 nM | 14.7
sgRNA knockout: sgXBP1, 10000 nM | 11.5
